According to publication PMC5009318, “Structural insights into the IgE mediated responses induced by the allergens Hev b 8 and Zea m 12 in their dimeric forms” (Scientific Reports, 2016):
Results are given in words; binding and its absence hold for the method and conditions named.

Target: recombinant profilin allergen rHev b 8 (isoform Hev b 8.0102) from Hevea brasiliensis (Hevea brasiliensis) (UniProt Q9STB6)
Experiment: SDS-PAGE under reducing conditions; same samples under reducing conditions; both purified

B1: recombinant profilin allergen rHev b 8 (isoform Hev b 8.0102) from Hevea brasiliensis (natural protein)
chain: MSWQAYVDDHLMCEIEGNHLSAAAIIGQDGSVWAQSANFPQFKSEEITGIMSDFHEPGTLAPTGLYIGGTKYMVIQGEPGAVIRGKKGPGGVTVKKTNQALIIGIYDEPMTPGQCNMIVERLGDYLIDQGY
notes: Cloned in pET28c; The dimer is held by a disulfide bridge between Cys13 of both chains; also called monomeric rHev b 8; dimeric rHev b 8; source: E. coli Rosetta (DE3), purified (Ni-NTA, enterokinase cleavage, mono Q anion exchange; oligomers separated by SEC)
  binding: no binding (condition: reducing conditions in SDS-PAGE)
